Structures can show the parent of a compound that is named as a salt. Some of the results follow. This data set is noisy: repeats of one test often differ as much as different tests do.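 Human kidney-derived cells stably carry a construct in which eight TEAD-binding elements drive luciferase, measured by luminescence in a drug-repurposing library screen. A hit is any compound whose signal exceeds the plate mean by more than five robust Z scores.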
Test system: HEK293A TEAD-LUC reporter
Assay: TEAD-luciferase reporter activity (YAP activation), robust Z score vs plate; higher = stronger YAP/TEAD activation
Details: 24 h

SMILES	TEAD-luciferase reporter activity (compound concentration: 200 nM)	TEAD-luciferase reporter activity (compound concentration: 10 uM)	TEAD-luciferase reporter activity (compound concentration: 2 uM)
CCc1c2c(nc3ccc(OC(=O)N4CCC(N5CCCCC5)CC4)cc13)-c1cc3c(c(=O)n1C2)COC(=O)C3(O)CC (stereo unspecified)	inactive: -1.57	inactive: 0.638	
CCc1c2c(nc3ccc(OC(=O)N4CCC(N5CCCCC5)CC4)cc13)-c1cc3c(c(=O)n1C2)COC(=O)C3(O)CC (stereo unspecified) [etirinotecan pegol]			inactive: 0.469
CCC(=O)N1Cc2ccccc2CC2(CCCN2C)C1 (stereo unspecified)	inactive: 0.773	inactive: -2.26	
OCc1cncc(F)c1 [fluoronicotinyl alcohol]	inactive: -0.292	inactive: -0.749	inactive: -0.161
NC(=O)OC(CN1CCC(C(=O)c2ccc(F)cc2)CC1)c1ccccc1 (stereo unspecified)	inactive: -0.744	inactive: -1.48	inactive: -0.223
CC(C)c1nc(CN(C)C(=O)N[C@@H](CCN2CCOCC2)C(=O)N[C@H](CC[C@H](Cc2ccccc2)NC(=O)OCc2cncs2)Cc2ccccc2)cs1 [Cobicistat]			inactive: 2.05
CC(C)c1nc(CN(C)C(=O)N[C@@H](CCN2CCOCC2)C(=O)N[C@H](CC[C@H](Cc2ccccc2)NC(=O)OCc2cncs2)Cc2ccccc2)cs1	inactive: -0.996	inactive: -1.05	
CC(C)(C)O/N=C(/c1cc(Br)c(F)cc1O)c1c(O)ccc[n+]1[O-]	inactive: -2.07	inactive: -0.649	inactive: -1.17
CC(C)=CCOc1cc(NC(=S)c2cscn2)ccc1Cl	inactive: -0.516	inactive: -0.834	inactive: 1.36
O=C(NC1CCN(c2nc3ncccc3o2)CC1)c1ccc(C(F)(F)F)cc1	inactive: -0.418	inactive: 2.92	
N#Cc1ccnc(N2C(=O)CC[C@H]2C(=O)N(c2cncc(F)c2)C(C(=O)NC2CC(F)(F)C2)c2ccccc2Cl)c1 (stereo partly specified)	inactive: -2.09	inactive: 1.73	inactive: -0.43
CCOC(=O)COc1ccc2c(c1)C[C@@H](NC[C@H](O)c1cccc(Cl)c1)CC2 [Amibegron hydrochloride]	inactive: -1.33	inactive: 0.405	inactive: -0.678
CC1OCC2(CCN(C)CC2)O1 (stereo unspecified)	inactive: -0.639	inactive: 0.226	
CCCC(=O)Nc1nnc(S(N)(=O)=O)s1	inactive: -0.639	inactive: -0.17	inactive: -0.703
CN(CCCN1c2ccccc2CCc2ccccc21)CC(=O)c1ccc(Cl)cc1	inactive: -0.475	inactive: -1.48	
CN(CCCN1c2ccccc2CCc2ccccc21)CC(=O)c1ccc(Cl)cc1 [lofepramine]			inactive: -2.79
NC(=O)OCC(O)COc1ccc(Cl)cc1 (stereo unspecified) [Chlorphenesin carbamate]	inactive: 4.13	inactive: 0.356	inactive: -1.3
CCCN1CCC(c2nc3c(C(N)=O)cccc3[nH]2)CC1	inactive: -0.878	active: 8.09	inactive: -1.66

SMILES	TEAD-luciferase reporter activity (compound concentration: 200 nM)	TEAD-luciferase reporter activity (compound concentration: 10 uM)	TEAD-luciferase reporter activity (compound concentration: 2 uM)
CCN(CC)CCN(Cc1ccc(-c2ccc(C(F)(F)F)cc2)cc1)C(=O)Cn1cc(Cc2cnn(C)c2)c(=O)nc1SCc1ccc(F)cc1	inactive: -1.36	inactive: -0.345	inactive: 0.662
[N-]=[N+]=NCC(=O)N[C@H](CO)[C@H](O)c1ccc([N+](=O)[O-])cc1 [Azidamfenicol]	inactive: 0.379	inactive: 1.58	inactive: 1.82
COc1cc(/C=C/C=C/C(=O)NCCN2CCC(OC(c3ccccc3)c3ccccc3)CC2)ccc1O	inactive: -1.93	inactive: 2	inactive: 0.586
CCc1ccc(C2=CC(C)(C)Sc3ccc(C#Cc4ccc(C(=O)O)cc4)cc32)cc1	inactive: 1.27	inactive: -0.51	inactive: -0.945
COc1ccccc1N1CCN(CC(O)COc2ccc(-c3cc(C#N)c(=O)[nH]c3C)cc2)CC1 (stereo unspecified)	inactive: -0.513	inactive: -1.16	inactive: -0.945
CC(C)(Oc1ccc(Cl)cc1)C(=O)OCCSCCCCCCCCCCSCCOC(=O)C(C)(C)Oc1ccc(Cl)cc1 [Tiafibrate]	inactive: -0.351	inactive: 0.743	inactive: 1.58
CC(=O)OC1CCC2(C)C(CCC3(C)C2C(=O)C=C2C4CC(C)(C(=O)O)CCC4(C)CCC23C)C1(C)C (stereo unspecified) [acetoxolone aluminium salt]	inactive: 0.403	inactive: 2.76	inactive: -1.86
O=C(CN1C(=O)c2ccccc2C1=O)NC1CCN(Cc2ccccc2)CC1	inactive: -2.34	inactive: 2.84	inactive: -1.21
Nc1cc(Cl)ccc1C(=O)CC(N)C(=O)O (stereo unspecified)	inactive: -0.0181	inactive: 0.231	inactive: 0.121
COC(=O)CC[C@]1(C)[C@H]2CC[C@]3(C)[C@@H]([C@H](C)CCCC(C)C)CC[C@H]3[C@@H]2CCC12OCCO2	inactive: -1.64	inactive: -0.722	inactive: -0.485
Cc1cc(C)cc(CC(=O)O)c1 [(3,5-dimethylphenyl)acetic acid]	inactive: -0.722	inactive: -1.18	inactive: 4.11
CC(=O)NCC(=O)N1Cc2ccccc2CC2(CCCCN2CC2CCNC2)C1 (stereo unspecified)	inactive: -1.51		
CCOc1ccccc1C(N)=O [2-Ethoxybenzamide]	inactive: 2.26	inactive: -0.61	
CCOc1ccccc1C(N)=O [Ethenzamide]			inactive: -0.933
O=C1C=CC(O)(c2cc3ccccc3n2S(=O)(=O)c2ccccc2)C=C1	inactive: 2.62	active: 9.39	inactive: 3.86
C#CCOc1ccc(N)cc1C(=O)NCCCC [parsalmide]	inactive: -0.618	inactive: -0.325	inactive: 0.0669
CC12CCC(CC1)C(C)(C)O2 [Eucalyptol]	inactive: 0.118	inactive: 1.79	inactive: -0.862
C[C@@H]1CC2C3C[C@H](F)C4=CC(=O)C=C[C@]4(C)C3[C@@H](O)C[C@]2(C)[C@H]1C(=O)CO (stereo partly specified)	inactive: 0.949	inactive: 0.848	inactive: -1.38

Another view of part of the listing above.
SMILES,TEAD-luciferase reporter activity (compound concentration: 200 nM),TEAD-luciferase reporter activity (compound concentration: 10 uM),TEAD-luciferase reporter activity (compound concentration: 2 uM)
CCN(CC)CCN(Cc1ccc(-c2ccc(C(F)(F)F)cc2)cc1)C(=O)Cn1cc(Cc2cnn(C)c2)c(=O)nc1SCc1ccc(F)cc1,inactive: -1.36,inactive: -0.345,inactive: 0.662
[N-]=[N+]=NCC(=O)N[C@H](CO)[C@H](O)c1ccc([N+](=O)[O-])cc1 [Azidamfenicol],inactive: 0.379,inactive: 1.58,inactive: 1.82
COc1ccccc1N1CCN(CC(O)COc2ccc(-c3cc(C#N)c(=O)[nH]c3C)cc2)CC1 (stereo unspecified),inactive: -0.513,inactive: -1.16,inactive: -0.945
CC(=O)OC1CCC2(C)C(CCC3(C)C2C(=O)C=C2C4CC(C)(C(=O)O)CCC4(C)CCC23C)C1(C)C (stereo unspecified) [acetoxolone aluminium salt],inactive: 0.403,inactive: 2.76,inactive: -1.86
O=C(CN1C(=O)c2ccccc2C1=O)NC1CCN(Cc2ccccc2)CC1,inactive: -2.34,inactive: 2.84,inactive: -1.21
"Cc1cc(C)cc(CC(=O)O)c1 [(3,5-dimethylphenyl)acetic acid]",inactive: -0.722,inactive: -1.18,inactive: 4.11
C#CCOc1ccc(N)cc1C(=O)NCCCC [parsalmide],inactive: -0.618,inactive: -0.325,inactive: 0.0669

— the supplement of paper PMC10735217
